These are yes or no findings as the source states them, for the method shown.
Key:
[1] = target: ClpC1-Δ3 (N-terminal truncated mutant, both N-terminal domains deleted) (Mycobacterium tuberculosis H37Rv) (UniProt P9WPC9); assay: SEC; Superdex-200 (1×30 cm) in buffer A (50 mM Tris-HCl pH 7.6, 100 mM KCl, 5 mM DTT, 10% glycerol, 0.01% Triton X-100), in the absence of ATP and MgCl2; fractions checked by SDS-PAGE; both purified
[2] = target: ClpC1–670 (Δ671–848 aa) (Mycobacterium tuberculosis H37Rv) (UniProt P9WPC9); assay: SEC; Superdex-200 (1×30 cm) in buffer A (50 mM Tris-HCl pH 7.6, 100 mM KCl, 5 mM DTT, 10% glycerol, 0.01% Triton X-100) with 15 mM ATP and 10 mM MgCl2; protein pre-incubated with 15 mM ATP and 10 mM MgCl2 for 30 min at 25°C; monomer to hexamer; fractions checked by SDS-PAGE; both purified
[3] = target: ClpC1–704 (Δ705–848 aa) (Mycobacterium tuberculosis H37Rv) (UniProt P9WPC9); assay: as above
[4] = target: ClpC1–721 (Δ722–848 aa) (Mycobacterium tuberculosis H37Rv) (UniProt P9WPC9); assay: as above
[5] = target: ClpC1–746 (Δ747–848 aa) (Mycobacterium tuberculosis H37Rv) (UniProt P9WPC9); assay: SEC; Superdex-200 (1×30 cm) in buffer A (50 mM Tris-HCl pH 7.6, 100 mM KCl, 5 mM DTT, 10% glycerol, 0.01% Triton X-100), in the absence of ATP and MgCl2; fractions checked by SDS-PAGE; both purified
[6] = target: ClpC1–766 (Δ767–848 aa) (Mycobacterium tuberculosis H37Rv) (UniProt P9WPC9); assay: as above
[7] = target: ClpC1–786 (Δ787–848 aa) (Mycobacterium tuberculosis H37Rv) (UniProt P9WPC9); assay: as above
[8] = target: ClpC1–806 (Δ807–848 aa) (Mycobacterium tuberculosis H37Rv) (UniProt P9WPC9); assay: as above

The chains behind the UniProt entries cited, without tags or fusion partners. Where a name states a change or a piece, a line headed by the entry shows the natural chain unless it says otherwise. Residues count along the entry.
UniProt P9WPC9, 1-670, stated change not applied: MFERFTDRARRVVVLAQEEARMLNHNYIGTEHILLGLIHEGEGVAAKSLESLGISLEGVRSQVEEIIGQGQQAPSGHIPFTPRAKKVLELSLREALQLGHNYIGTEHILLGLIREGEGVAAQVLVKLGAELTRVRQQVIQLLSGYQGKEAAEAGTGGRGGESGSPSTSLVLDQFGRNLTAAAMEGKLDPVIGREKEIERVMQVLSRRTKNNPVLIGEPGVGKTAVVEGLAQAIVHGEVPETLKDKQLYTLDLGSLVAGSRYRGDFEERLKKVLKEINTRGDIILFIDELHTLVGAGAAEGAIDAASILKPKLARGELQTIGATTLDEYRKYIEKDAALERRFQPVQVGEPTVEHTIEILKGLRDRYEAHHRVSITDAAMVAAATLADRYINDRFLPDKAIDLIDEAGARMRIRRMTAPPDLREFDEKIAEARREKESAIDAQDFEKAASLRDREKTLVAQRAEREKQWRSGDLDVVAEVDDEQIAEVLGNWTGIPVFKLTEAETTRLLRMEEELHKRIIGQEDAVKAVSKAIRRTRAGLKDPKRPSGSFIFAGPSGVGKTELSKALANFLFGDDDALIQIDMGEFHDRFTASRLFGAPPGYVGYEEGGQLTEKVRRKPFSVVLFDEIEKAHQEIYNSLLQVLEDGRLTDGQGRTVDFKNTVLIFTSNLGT
UniProt P9WPC9, 1-704, stated change not applied: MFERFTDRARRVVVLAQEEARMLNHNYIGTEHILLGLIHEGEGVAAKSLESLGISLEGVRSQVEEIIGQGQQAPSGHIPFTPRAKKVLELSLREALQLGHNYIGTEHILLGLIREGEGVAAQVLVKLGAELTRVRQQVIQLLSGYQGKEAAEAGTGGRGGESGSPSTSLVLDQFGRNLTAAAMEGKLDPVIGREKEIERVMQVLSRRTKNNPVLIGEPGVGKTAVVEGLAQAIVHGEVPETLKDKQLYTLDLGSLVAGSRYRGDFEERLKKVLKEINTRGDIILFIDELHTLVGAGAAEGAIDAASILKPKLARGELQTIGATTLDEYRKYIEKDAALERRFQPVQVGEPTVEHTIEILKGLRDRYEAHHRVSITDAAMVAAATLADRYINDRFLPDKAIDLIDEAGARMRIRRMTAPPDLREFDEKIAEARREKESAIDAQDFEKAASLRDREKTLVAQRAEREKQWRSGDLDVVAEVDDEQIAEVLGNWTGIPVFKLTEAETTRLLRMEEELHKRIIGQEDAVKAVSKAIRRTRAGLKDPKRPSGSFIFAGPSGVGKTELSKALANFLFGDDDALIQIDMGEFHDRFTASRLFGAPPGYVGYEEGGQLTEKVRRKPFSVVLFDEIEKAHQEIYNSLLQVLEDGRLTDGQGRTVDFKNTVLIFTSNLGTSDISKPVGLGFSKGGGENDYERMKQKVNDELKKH
UniProt P9WPC9, 1-721, stated change not applied: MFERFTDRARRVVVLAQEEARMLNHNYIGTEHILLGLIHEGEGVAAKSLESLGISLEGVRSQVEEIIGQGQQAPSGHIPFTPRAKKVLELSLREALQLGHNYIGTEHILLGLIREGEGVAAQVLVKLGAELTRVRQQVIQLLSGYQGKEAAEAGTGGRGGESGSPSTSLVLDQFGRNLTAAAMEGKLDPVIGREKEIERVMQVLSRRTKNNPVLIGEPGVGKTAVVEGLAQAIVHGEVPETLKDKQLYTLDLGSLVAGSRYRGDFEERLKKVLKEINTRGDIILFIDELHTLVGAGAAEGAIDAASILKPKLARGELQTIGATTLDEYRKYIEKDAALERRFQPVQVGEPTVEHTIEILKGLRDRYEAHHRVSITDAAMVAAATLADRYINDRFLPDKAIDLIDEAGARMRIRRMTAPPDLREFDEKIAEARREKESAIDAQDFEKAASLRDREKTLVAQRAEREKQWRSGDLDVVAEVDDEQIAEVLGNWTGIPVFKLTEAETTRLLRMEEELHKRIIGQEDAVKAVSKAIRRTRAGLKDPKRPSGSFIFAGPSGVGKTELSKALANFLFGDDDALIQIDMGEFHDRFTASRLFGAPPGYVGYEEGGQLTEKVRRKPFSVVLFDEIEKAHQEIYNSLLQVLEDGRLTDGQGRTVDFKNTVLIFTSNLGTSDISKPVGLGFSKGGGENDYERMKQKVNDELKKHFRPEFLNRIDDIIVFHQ
UniProt P9WPC9, 1-746, stated change not applied: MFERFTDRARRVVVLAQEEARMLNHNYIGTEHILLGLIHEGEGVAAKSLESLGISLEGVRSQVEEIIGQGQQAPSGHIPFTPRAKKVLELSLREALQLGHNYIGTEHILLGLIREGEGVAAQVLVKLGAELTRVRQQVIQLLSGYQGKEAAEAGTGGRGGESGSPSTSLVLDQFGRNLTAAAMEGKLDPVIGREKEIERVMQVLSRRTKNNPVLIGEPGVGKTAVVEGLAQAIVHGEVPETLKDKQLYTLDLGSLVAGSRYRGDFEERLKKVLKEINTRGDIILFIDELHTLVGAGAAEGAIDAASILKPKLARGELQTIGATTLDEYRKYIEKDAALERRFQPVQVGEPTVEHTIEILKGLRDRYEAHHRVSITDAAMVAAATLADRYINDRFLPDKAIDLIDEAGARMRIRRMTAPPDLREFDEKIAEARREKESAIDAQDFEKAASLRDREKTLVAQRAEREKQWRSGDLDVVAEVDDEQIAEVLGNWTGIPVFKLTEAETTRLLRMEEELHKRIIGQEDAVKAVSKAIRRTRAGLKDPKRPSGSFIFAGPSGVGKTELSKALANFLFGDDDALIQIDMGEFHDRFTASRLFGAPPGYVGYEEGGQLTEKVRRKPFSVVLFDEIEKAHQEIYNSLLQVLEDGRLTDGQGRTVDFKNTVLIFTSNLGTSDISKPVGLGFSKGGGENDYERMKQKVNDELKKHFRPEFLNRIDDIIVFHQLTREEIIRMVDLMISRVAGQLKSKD
UniProt P9WPC9, 1-766, stated change not applied: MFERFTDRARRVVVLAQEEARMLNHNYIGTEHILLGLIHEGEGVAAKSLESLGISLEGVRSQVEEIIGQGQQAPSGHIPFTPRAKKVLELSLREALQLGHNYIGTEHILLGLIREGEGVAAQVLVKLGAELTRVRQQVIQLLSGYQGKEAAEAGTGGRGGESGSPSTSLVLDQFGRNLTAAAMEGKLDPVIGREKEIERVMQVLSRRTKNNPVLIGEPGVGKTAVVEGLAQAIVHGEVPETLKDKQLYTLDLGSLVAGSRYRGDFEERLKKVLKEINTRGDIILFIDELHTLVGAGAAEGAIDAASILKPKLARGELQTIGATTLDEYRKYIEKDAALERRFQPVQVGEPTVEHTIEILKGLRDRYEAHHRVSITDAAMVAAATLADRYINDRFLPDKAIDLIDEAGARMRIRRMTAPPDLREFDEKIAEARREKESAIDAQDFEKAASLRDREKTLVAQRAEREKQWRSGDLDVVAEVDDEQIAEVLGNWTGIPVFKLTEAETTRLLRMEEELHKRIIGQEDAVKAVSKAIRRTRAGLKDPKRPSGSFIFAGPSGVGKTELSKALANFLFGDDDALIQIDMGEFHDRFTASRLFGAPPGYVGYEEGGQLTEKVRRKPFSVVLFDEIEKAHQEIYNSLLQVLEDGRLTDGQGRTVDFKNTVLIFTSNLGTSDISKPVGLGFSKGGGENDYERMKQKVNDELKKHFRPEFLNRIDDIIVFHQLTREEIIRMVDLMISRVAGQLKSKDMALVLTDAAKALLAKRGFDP
UniProt P9WPC9, 1-786, stated change not applied: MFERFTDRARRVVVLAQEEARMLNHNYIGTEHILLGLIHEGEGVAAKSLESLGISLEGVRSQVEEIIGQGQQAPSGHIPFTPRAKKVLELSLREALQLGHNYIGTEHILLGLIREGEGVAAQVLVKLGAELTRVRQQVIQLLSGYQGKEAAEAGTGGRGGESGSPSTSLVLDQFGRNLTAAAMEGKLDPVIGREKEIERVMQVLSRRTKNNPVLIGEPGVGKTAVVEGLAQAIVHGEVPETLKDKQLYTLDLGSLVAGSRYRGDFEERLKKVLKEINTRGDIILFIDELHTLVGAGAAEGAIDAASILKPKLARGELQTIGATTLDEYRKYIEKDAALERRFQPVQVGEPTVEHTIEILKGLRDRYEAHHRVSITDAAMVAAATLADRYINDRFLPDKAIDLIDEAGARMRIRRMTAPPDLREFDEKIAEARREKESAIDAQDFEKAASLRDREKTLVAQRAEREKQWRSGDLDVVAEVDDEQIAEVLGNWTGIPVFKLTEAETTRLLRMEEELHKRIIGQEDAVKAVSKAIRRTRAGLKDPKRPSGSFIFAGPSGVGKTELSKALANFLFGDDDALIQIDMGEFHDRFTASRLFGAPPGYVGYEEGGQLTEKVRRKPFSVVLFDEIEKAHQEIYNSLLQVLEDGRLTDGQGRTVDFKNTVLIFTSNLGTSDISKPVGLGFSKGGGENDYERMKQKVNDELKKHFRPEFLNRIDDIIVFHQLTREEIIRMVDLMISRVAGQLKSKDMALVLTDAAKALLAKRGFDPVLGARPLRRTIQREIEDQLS
UniProt P9WPC9, 1-806, stated change not applied: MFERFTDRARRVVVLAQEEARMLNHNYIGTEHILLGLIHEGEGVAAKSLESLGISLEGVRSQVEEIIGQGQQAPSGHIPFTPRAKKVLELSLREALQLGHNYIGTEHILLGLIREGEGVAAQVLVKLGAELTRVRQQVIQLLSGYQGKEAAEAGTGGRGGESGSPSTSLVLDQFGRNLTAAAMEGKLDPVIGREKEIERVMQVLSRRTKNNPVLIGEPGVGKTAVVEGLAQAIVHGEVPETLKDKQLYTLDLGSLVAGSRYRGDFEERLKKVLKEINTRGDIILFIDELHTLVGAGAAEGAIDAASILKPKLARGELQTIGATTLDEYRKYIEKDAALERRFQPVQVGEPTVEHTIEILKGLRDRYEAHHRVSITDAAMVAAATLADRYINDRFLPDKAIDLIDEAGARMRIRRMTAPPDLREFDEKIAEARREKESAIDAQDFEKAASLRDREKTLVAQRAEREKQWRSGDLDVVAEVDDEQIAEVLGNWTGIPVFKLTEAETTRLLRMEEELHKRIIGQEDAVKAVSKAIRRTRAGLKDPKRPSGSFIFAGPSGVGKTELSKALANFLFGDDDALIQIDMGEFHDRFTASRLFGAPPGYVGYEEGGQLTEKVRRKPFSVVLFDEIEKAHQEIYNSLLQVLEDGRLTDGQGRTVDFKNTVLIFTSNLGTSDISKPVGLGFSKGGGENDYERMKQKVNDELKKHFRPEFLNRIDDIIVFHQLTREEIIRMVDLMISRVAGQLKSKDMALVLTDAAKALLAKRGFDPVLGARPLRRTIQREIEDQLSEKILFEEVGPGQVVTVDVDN
UniProt P9WPC9, 114-848, stated change not applied: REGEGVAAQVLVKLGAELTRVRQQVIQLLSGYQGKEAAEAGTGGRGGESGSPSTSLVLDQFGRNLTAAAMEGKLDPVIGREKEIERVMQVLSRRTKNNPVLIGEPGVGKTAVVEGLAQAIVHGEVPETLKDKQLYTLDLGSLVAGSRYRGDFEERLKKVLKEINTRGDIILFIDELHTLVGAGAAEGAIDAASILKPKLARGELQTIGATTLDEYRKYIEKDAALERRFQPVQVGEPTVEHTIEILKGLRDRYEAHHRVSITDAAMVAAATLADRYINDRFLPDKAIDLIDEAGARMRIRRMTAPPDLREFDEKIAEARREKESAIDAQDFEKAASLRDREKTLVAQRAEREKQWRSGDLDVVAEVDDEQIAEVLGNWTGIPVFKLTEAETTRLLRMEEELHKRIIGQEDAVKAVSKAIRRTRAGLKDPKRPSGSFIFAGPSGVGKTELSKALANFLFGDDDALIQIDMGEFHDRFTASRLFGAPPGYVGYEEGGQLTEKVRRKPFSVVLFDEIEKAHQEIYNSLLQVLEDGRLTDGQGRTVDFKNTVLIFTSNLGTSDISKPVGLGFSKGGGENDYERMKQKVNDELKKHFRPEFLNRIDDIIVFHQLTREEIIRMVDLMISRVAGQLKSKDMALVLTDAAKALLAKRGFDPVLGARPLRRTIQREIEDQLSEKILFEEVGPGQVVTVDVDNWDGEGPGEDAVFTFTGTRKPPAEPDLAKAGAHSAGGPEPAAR

In the case of “ClpC1-Δ3 (N-terminal truncated mutant, both N-terminal domains deleted) (from UniProt P9WPC9 114-848) (domain or fragment)”, the binding [1] is reported as “no binding (condition: in the absence of ATP)”.

For “ClpC1–670 (Δ671–848 aa) (from UniProt P9WPC9 1-670) (domain or fragment)”, the binding [2] was “no binding”.

For “ClpC1–704 (Δ705–848 aa) (from UniProt P9WPC9 1-704) (domain or fragment)”, the binding [3] was “no binding”.

In the case of “ClpC1–721 (Δ722–848 aa) (from UniProt P9WPC9 1-721) (domain or fragment)”, the binding [4] is reported as “no binding”.

“ClpC1–746 (Δ747–848 aa) (from UniProt P9WPC9 1-746) (domain or fragment)” was tested, and the binding [5] was “no binding (condition: in the absence of ATP)”.

In the case of “ClpC1–766 (Δ767–848 aa) (from UniProt P9WPC9 1-766) (domain or fragment)”, the binding [6] is reported as “no binding (condition: in the absence of ATP)”.

For “ClpC1–786 (Δ787–848 aa) (from UniProt P9WPC9 1-786) (domain or fragment)”, the binding [7] was “no binding (condition: in the absence of ATP)”.

For “ClpC1–806 (Δ807–848 aa) (from UniProt P9WPC9 1-806) (domain or fragment)”, the binding [8] was “no binding (condition: in the absence of ATP)”.
